The results in this text go back to publication PMC10363480 (Plant Communications, 2023).

The test system of this series is mitochondria or chloroplast of Chlamydomonas reinhardtii. Nature of the series: Subcellular localization of Venus reporter by epifluorescence microscopy (manual targeting assignment). The series is classed as cell-based. The following applies: Type HA-RAMP; set to which the native HA-RAMP is assigned (mt-set or cp-set). An excerpt:
In a bid to keep peptidase recognition sites intact, C-terminal elements were designed to start 10 residues upstream of the cleavage site, even though this slightly truncates TP helices. Peptides carrying the 15-amino-acid cTP N-terminus (cTP-N) will be denoted ^cP. Similarly, peptides with C-terminal elements from RCA1-cTP (cTP-C) or CAG2-mTP (mTP-C) will be denoted P^c or P^m, respectively. Peptide variants are used to drive the subcellular localization of a Venus fluorescent reporter protein, which was assessed using fluorescence microscopy; in Figure 2, an executive overview of observed Venus localization is presented for all constructs. […] Here, we use automated image segmentation to validate our subcellular localization assessment (Supplemental Figure 2, Supplemental text). […] The reader will be asked to return to Figure 2 throughout, with Figures 3 and 4 providing selected micrographs as examples highlighting particular points of interest.
Chlamydomonas TP sequences were amplified from genomic DNA extracted from strain T222+ (CC-5101). Templates for codon-optimized HA-RAMP, RP, and R→K modified TP sequences were obtained by gene synthesis (Eurofins Genomics). Correct assembly was verified by sequencing (Eurofins Genomics). Linear transformation cassettes were generated through restriction digestion with EcoRV (New England Biolabs).
Constructs were transformed into wild-type strain T222+ (CC-5101) using a protocol described previously ([Onishi and Pringle, 2016]), except using 4 μl of DNA at 2 μg/μl.
Strains with suspected mitochondrial targeting were treated with 0.1 μM MitoTracker Red CMXRos (Thermo Fisher Scientific) in growth medium for 30 min in the dark and washed with TAP prior to taking images.
Legend for Fig. S3 – S20. Three independent transformant lines (Strains 1-3) are shown for each combination of modifications (A-L), represented by a cartoon and a shorthand description (cf. Fig.
2). Where a construct was interpreted as generating reporter localization in mitochondria or […]
Epifluorescence microscopy images of typical cells for each strain are shown. MitoTracker fluorescence, false-coloured in cyan, indicates the position of mitochondria (although parts of the cell exterior are sometimes also stained). False-coloured yellow fluorescence from the Venus channel reports on the subcellular localization of the fluorescent reporter. Chlorophyll autofluorescence, shown in magenta, indicates the location of the chloroplast. Scale bars are 5µm. Brightness (Br.) was adjusted for clarity: fluorescence intensity values were restricted to the range shown for each channel by matching coloured rectangles. Intensity scales to 0 at the bottom of the panel, and to 65535 at the top.
On the right-hand side, quantitative information associated with each construct is shown. Data was normalized such that averages range from 0 to 1 across all constructs (cf. Fig S2). Individual cell measurements may exceed this range; for clarity, the range shown here is limited to -0.5 to 1.5, with outliers that have more extreme values shown as lying beyond a dashed line. Strain 1 is plotted as circles, strain 2 as squares, and strain 3 as diamonds. Venus: Fluorescence plate reader data of transformants screened for this construct (Venus fluorescence, accounting for cell density using linear regression of OD750 and chlorophyll fluorescence trained on ‘no venus’ control transformants). Transformants that were not selected after screening are shown as small grey circles. A colour code ranging from white (low Venus fluorescence) to black (high Venus fluorescence) is used for strains 1-3 and the average thereof. Automated image quantification data: pyr/chl: Venus channel signal in the pyrenoid relative to in the chlorophyll region; mt/cell: Venus channel signal in mitochondria relative to the whole cell. Each point corresponds to a single cell.
The colour code code is the same as that below distributions in Fig. S2, i.e. blue highlights the […]

For the substance “VNYGNGVSCSKTKCSVNWGIITHQAFRVTSGVASG [B15, bacillocin 1580, HA-RAMP antimicrobial peptide, reference compound]”, the Localisation entry is listed as “cp-set”.
For “KYYGNGVSCNKKGCSVDWGKAIGIIGNNAAANLTTGGKAGWKG [EHF, enterocin HF, HA-RAMP antimicrobial peptide, reference compound]” the value was “cp-set”; for “GLFSKFNKKKIKSGLIKIIKTAGKEAGLEALRTGIDVIGCKIKGEC [E1S, esculentin-1SEA, HA-RAMP antimicrobial peptide, reference compound]”, “cp-set”.
For “ranatuerin-2G [R2GK, reference compound]” the value was “mt-set”; for “GKIPVKAIKKAGAAIGKGLRAINIASTAHDVYSFFKPKHKKK [SIM, SI moricin, HA-RAMP antimicrobial peptide, reference compound]”, “cp-set”; for “KYYGNGVHCTKSGCSVNWGEAFSAGVHRLANGGNGFW [LCA, leucocin A, HA-RAMP antimicrobial peptide, reference compound]”, “cp-set”.
To “GIGKFLHSAKKFGKAFVGEIMNS [MII, magainin 2, HA-RAMP antimicrobial peptide, reference compound]” belongs “mt-set”; to “SFLTTFKDLAIKAAKSAGQSVLSTLSCKLSNTC [B2I, brevinin-2ISb, HA-RAMP antimicrobial peptide, reference compound]”, “mt-set”.
